Measurements from patent US20100041746A1, “NOVEL USE OF ORGANIC COMPOUNDS” (priority 2006, published 2010).
Some entries share one result that the patent states for a list of compounds.

The compounds below were run on genes involved in fatty acid oxidation and mitochondrial uncoupling (assay: Gene expression panel in C2C12 muscle cells (summary)).
Assay type: cell-based, mouse
With `COc1ccc(C(=O)/C=C/c2c(CCN(C)C(C)=O)cc3c(c2OC)OCO3)cc1` [Compound 4] the “Activation of gene panel (in words)” value was “selective activation”.
In the case of `COc1cc(C=CC(=O)NC(=O)c2ccccc2O)cc(OC)c1OC` [Compound 2], the “Activation of gene panel (in words)” value is reported as “selective activation”.
`O=C(C=Cc1ccc(O)c(O)c1)NC(=O)c1ccccc1O` [Compound 1, N-[3-(3,4-dihydroxyphenyl)-1-oxo-2-propenyl]-2-hydroxybenzamide] was tested, and the “Activation of gene panel (in words)” value was “selective activation”.
In the case of `COc1ccc(C(=O)C=Cc2ccc(OC)c(OC)c2)cc1` [Compound 6, 3-(3,4-dimethoxyphenyl)-1-(4-methoxyphenyl)-2-propen-1-one], the “Activation of gene panel (in words)” value is reported as “selective activation”.
In the case of `COc1ccc(C(=O)C=Cc2cccc(OC(=O)C=Cc3ccccc3)c2)cc1` [Compound 5, 3-phenyl-2-propenoic acid 3-[3-(4-methoxyphenyl)-3-oxo-1-propenyl]phenyl ester], the “Activation of gene panel (in words)” value is reported as “selective activation”.
In the case of `COc1ccc(C=C2Oc3cc(O)ccc3C2=O)cc1` [Compound 7], the “Activation of gene panel (in words)” value is reported as “selective activation”.
With `COc1ccc(C=CC(=O)c2cc(OC)ccc2OC)c(OC)c1` [Compound 3, 3-(2,4-dimethoxyphenyl)-1-(2,5-dimethoxyphenyl)-2-propen-1-one] the “Activation of gene panel (in words)” value was “selective activation”.
With `COc1ccc(C(=O)C=Cc2ccc(OC)cc2OC)cc1` [Compound 8, 3-(2,4-dimethoxyphenyl)-1-(4-methoxyphenyl)-2-propen-1-one] the “Activation of gene panel (in words)” value was “selective activation”.
